From patent CN117820486A
No constants are given. Whether binding was seen depends on the method and setting. Some entries that bind do so weakly or less than the wild type.

Assays:
人源HLA-G1 (human) = 人源HLA-G1 (human) (UniProt P17693); assay: flow cytometry on COS7-HLAG1 cells
人源HLA-G5蛋白 (human) = 人源HLA-G5蛋白 (human) (UniProt P17693); assay: ELISA on plate-coated human HLA-G5 protein

- binding (人源HLA-G1 (human)): binds
- binding (人源HLA-G5蛋白 (human)): binds
B1: 嵌合抗HLA-G抗体27G8 (antibody, V domains shown)
VH: EVQLQQSGPELVKPGASVKMSCKTSRSSFTEYTMQWVKQRHGKSLEWIGGIIPNNGAPTYNQKFKGKATLTVDKSSSMAFMELRSLTSEDSAVYFCARGGREEFGPYYFDFWGQGTTLTVSS
VL: DVVLTQIPLSLPVSLGDRASISCRSSQRLVHSNGYTHLHWYLQKPGQSPKLLIYKVSNRFSGVPDRFSGSGSGTDFTLKISRVEAEDLGVYFCSQSTFVPWTFGGGTKLEFK
